From paper PMC11650989

B1: Cold inducible RNA-binding protein (protein, UniProt Q14011 1-172)
chain: MASDEGKLFVGGLSFDTNEQSLEQVFSKYGQISEVVVVKDRETQRSRGFGFVTFENIDDAKDAMMAMNGKSVDGRQIRVDQAGKSSDNRSRGYRGGSAGGRGFFRGGRGRGRGFSRGGGDRGYGGNRFESRSGGYGGSRDYYSSRSQSGGYSDRSSGGSYRDSYDSYATHNE
B2: Polymerase delta-interacting protein 2 (protein, UniProt Q9Y2S7 52-368)
chain: SSRNRPEGKVLETVGVFEVPKQNGKYETGQLFLHSIFGYRGVVLFPWQARLYDRDVASAAPEKAENPAGHGSKEVKGKTHTYYQVLIDARDCPHISQRSQTEAVTFLANHDDSRALYAIPGLDYVSHEDILPYTSTDQVPIQHELFERFLLYDQTKAPPFVARETLRAWQEKNHPWLELSDVHRETTENIRVTVIPFYMGMREAQNSHVYWWRYCIRLENLDSDVVQLRERHWRIFSLSGTLETVRGRGVVGREPVLSKEQPAFQYSSHVSLQASSGHMWGTFRFERPDGSHFDVRIPPFSLESNKDEKTPPSGLHW
B3: Endothelial differentiation-related factor 1 (protein, UniProt O60869 1-148)
chain: MAESDWDTVTVLRKKGPTAAQAKSKQAILAAQRRGEDVETSKKWAAGQNKQHSITKNTAKLDRETEELHHDRVTLEVGKVIQQGRQSKGLTQKDLATKINEKPQVIADYESGRAIPNNQVLGKIERAIGLKLRGKDIGKPIEKGPRAK
B4: Single-stranded DNA binding protein 1, mitochondrial (protein, UniProt Q04837 17-148)
chain: ESETTTSLVLERSLNRVHLLGRVGQDPVLRQVEGKNPVTIFSLATNEMWRSGDSEVYQLGDVSQKTTWHRISVFRPGLRDVAYQYVKKGSRIYLEGKIDYGEYMDKNNVRRQATTIIADNIIFLSDQTKEKE
B5: Plastin 3 (protein, UniProt P13797 1-630)
chain: MDEMATTQISKDELDELKEAFAKVDLNSNGFICDYELHELFKEANMPLPGYKVREIIQKLMLDGDRNKDGKISFDEFVYIFQEVKSSDIAKTFRKAINRKEGICALGGTSELSSEGTQHSYSEEEKYAFVNWINKALENDPDCRHVIPMNPNTDDLFKAVGDGIVLCKMINLSVPDTIDERAINKKKLTPFIIQENLNLALNSASAIGCHVVNIGAEDLRAGKPHLVLGLLWQIIKIGLFADIELSRNEALAALLRDGETLEELMKLSPEELLLRWANFHLENSGWQKINNFSADIKDSKAYFHLLNQIAPKGQKEGEPRIDINMSGFNETDDLKRAESMLQQADKLGCRQFVTPADVVSGNPKLNLAFVANLFNKYPALTKPENQDIDWTLLEGETREERTFRNWMNSLGVNPHVNHLYADLQDALVILQLYERIKVPVDWSKVNKPPYPKLGANMKKLENCNYAVELGKHPAKFSLVGIGGQDLNDGNQTLTLALVWQLMRRYTLNVLEDLGDGQKANDDIIVNWVNRTLSEAGKSTSIQSFKDKTISSSLAVVDLIDAIQPGCINYDLVKSGNLTEDDKHNNAKYAVSMARRIGARVYALPEDLVEVKPKMVMTVFACLMGRGMKRV
B6: Pyruvate dehydrogenase (lipoamide) beta (protein, UniProt P11177 31-359)
chain: LQVTVRDAINQGMDEELERDEKVFLLGEEVAQYDGAYKVSRGLWKKYGDKRIIDTPISEMGFAGIAVGAAMAGLRPICEFMTFNFSMQAIDQVINSAAKTYYMSGGLQPVPIVFRGPNGASAGVAAQHSQCFAAWYGHCPGLKVVSPWNSEDAKGLIKSAIRDNNPVVVLENELMYGVPFEFPPEAQSKDFLIPIGKAKIERQGTHITVVSHSRPVGHCLEAAAVLSKEGVECEVINMRTIRPMDMETIEASVMKTNHLVTVEGGWPQFGVGAEICARIMEGPAFNFLDAPAVRVTGADVPMPYAKILEDNSIPQVKDIIFAIKKTLNI
B7: Peroxiredoxin 1 (protein, UniProt Q06830 1-199)
chain: MSSGNAKIGHPAPNFKATAVMPDGQFKDISLSDYKGKYVVFFFYPLDFTFVCPTEIIAFSDRAEEFKKLNCQVIGASVDSHFCHLAWVNTPKKQGGLGPMNIPLVSDPKRTIAQDYGVLKADEGISFRGLFIIDDKGILRQITVNDLPVGRSVDETLRLVQAFQFTDKHGEVCPAGWKPGSDTIKPDVQKSKEYFSKQK
B8: Pyrophosphatase (inorganic) 1 (protein, UniProt Q15181 1-289)
chain: MSGFSTEERAAPFSLEYRVFLKNEKGQYISPFHDIPIYADKDVFHMVVEVPRWSNAKMEIATKDPLNPIKQDVKKGKLRYVANLFPYKGYIWNYGAIPQTWEDPGHNDKHTGCCGDNDPIDVCEIGSKVCARGEIIGVKVLGILAMIDEGETDWKVIAINVDDPDAANYNDINDVKRLKPGYLEATVDWFRRYKVPDGKPENEFAFNAEFKDKDFAIDIIKSTHDHWKALVTKKTNGKGISCMNTTLSESPFKCDPDAARAIVDALPPPCESACTVPTDVDKWFHHQKN
B9: Methionyl-tRNA synthetase (protein, UniProt P56192 1-900)
chain: MRLFVSDGVPGCLPVLAAAGRARGRAEVLISTVGPEDCVVPFLTRPKVPVLQLDSGNYLFSTSAICRYFFLLSGWEQDDLTNQWLEWEATELQPALSAALYYLVVQGKKGEDVLGSVRRALTHIDHSLSRQNCPFLAGETESLADIVLWGALYPLLQDPAYLPEELSALHSWFQTLSTQEPCQRAAETVLKQQGVLALRPYLQKQPQPSPAEGRAVTNEPEEEELATLSEEEIAMAVTAWEKGLESLPPLRPQQNPVLPVAGERNVLITSALPYVNNVPHLGNIIGCVLSADVFARYSRLRQWNTLYLCGTDEYGTATETKALEEGLTPQEICDKYHIIHADIYRWFNISFDIFGRTTTPQQTKITQDIFQQLLKRGFVLQDTVEQLRCEHCARFLADRFVEGVCPFCGYEEARGDQCDKCGKLINAVELKKPQCKVCRSCPVVQSSQHLFLDLPKLEKRLEEWLGRTLPGSDWTPNAQFITRSWLRDGLKPRCITRDLKWGTPVPLEGFEDKVFYVWFDATIGYLSITANYTDQWERWWKNPEQVDLYQFMAKDNVPFHSLVFPCSALGAEDNYTLVSHLIATEYLNYEDGKFSKSRGVGVFGDMAQDTGIPADIWRFYLLYIRPEGQDSAFSWTDLLLKNNSELLNNLGNFINRAGMFVSKFFGGYVPEMVLTPDDQRLLAHVTLELQHYHQLLEKVRIRDALRSILTISRHGNQYIQVNEPWKRIKGSEADRQRAGTVTGLAVNIAALLSVMLQPYMPTVSATIQAQLQLPPPACSILLTNFLCTLPAGHQIGTVSPLFQKLENDQIESLRQRFGGGQAKTSPKPAVVETVTTAKPQQIQALMDEVTKQGNIVRELKAQKADKNEVAAEVAKLLDLKKQLAVAEGKPPEAPKGKKKK
B10: Signal recognition particle 9 kDa (protein, UniProt P49458 1-86)
chain: MPQYQTWEEFSRAAEKLYLADPMKARVVLKYRHSDGNLCVKVTDDLVCLVYKTDQAQDVKKIEKFHSQLMRLMVAKEARNVTMETE

Each binder was assayed against EGFP-Nsp4 (PRRSV non-structural protein 4) (porcine reproductive and respiratory syndrome virus (PRRSV)) (assay: affinity purification with mass spectrometry; GFP-Trap beads on clarified lysates of HEK293T cells transfected with pEGFP-Nsp4 or pEGFP (24 h), 2 h at 4°C; label-free LC-MS/MS in triplicate, MaxQuant against a human database; FDR ≤1%, two or more unique peptides, ratio greater than twofold).

| Binder | binding |
| --- | --- |
| B1 | binds |
| B2 | binds |
| B3 | binds |
| B4 | binds |
| B5 | binds |
| B6 | binds |
| B7 | binds |
| B8 | binds |
| B9 | binds |
| B10 | binds |

No constants are given. Whether binding was seen depends on the method and setting. Binding seen in cells or lysates may run through a third protein. These calls come from enrichment with a bait or labelling near it, and not all partners need be listed.
